Here are results for one molecule from PMC4335056.

The target of the experiment is T1, TwinkleFLAG (mtDNA helicase Twinkle with a FLAG tag at its C-terminus), Q96RR1.
T1 chain: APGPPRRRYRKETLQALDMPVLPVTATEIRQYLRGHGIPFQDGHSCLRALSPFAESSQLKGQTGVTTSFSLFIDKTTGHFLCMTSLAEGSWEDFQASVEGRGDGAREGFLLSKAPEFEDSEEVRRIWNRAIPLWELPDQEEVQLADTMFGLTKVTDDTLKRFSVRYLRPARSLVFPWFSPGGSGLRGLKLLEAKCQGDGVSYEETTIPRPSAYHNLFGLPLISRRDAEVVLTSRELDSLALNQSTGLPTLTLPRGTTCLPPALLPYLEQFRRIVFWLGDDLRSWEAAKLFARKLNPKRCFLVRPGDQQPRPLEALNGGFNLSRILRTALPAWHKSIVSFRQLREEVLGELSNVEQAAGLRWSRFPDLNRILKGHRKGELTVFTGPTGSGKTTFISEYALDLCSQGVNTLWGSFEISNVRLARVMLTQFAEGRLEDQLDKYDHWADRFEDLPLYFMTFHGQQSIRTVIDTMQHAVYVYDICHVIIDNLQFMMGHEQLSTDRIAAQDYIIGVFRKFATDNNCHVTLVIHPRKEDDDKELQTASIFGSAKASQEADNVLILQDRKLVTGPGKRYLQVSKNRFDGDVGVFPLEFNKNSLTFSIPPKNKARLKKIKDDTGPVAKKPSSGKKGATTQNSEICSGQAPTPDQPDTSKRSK
Nature of the experiment: cross-linking + affinity purification with mass spectrometry; whole cell 1% formaldehyde cross-linking; method A: Triton X-100 lysis (50 mM Tris-HCl pH 7.4, 300 mM NaCl, 2 mM EDTA, 1% Triton X-100), sonication, FLAG resin, washes with 800 mM, 50 mM and 150 mM NaCl, 3xFLAG peptide elution; LTQ-FT (3 biological repeats) and Q Exactive (sample 2 in triplicate); enriched ≥2 fold by LFQ over TwinkleFLAG -XL and mtLucFLAG …. To be noted: remark: other sources report otherwise.

No constants are given. Whether binding was seen depends on the method and setting. Binding seen in cells or lysates may run through a third protein. Here binding means that the protein was enriched with, or labelled near, the bait; the list need not be complete. Where a sequence is shown, tags or fusion partners need not be part of it.

B1: POLG1 (Polymerase gamma), P54098 1-1239 (enzyme)
chain: MSRLLWRKVAGATVGPGPVPAPGRWVSSSVPASDPSDGQRRRQQQQQQQQQQQQQPQQPQVLSSEGGQLRHNPLDIQMLSRGLHEQIFGQGGEMPGEAAVRRSVEHLQKHGLWGQPAVPLPDVELRLPPLYGDNLDQHFRLLAQKQSLPYLEAANLLLQAQLPPKPPAWAWAEGWTRYGPEGEAVPVAIPEERALVFDVEVCLAEGTCPTLAVAISPSAWYSWCSQRLVEERYSWTSQLSPADLIPLEVPTGASSPTQRDWQEQLVVGHNVSFDRAHIREQYLIQGSRMRFLDTMSMHMAISGLSSFQRSLWIAAKQGKHKVQPPTKQGQKSQRKARRGPAISSWDWLDISSVNSLAEVHRLYVGGPPLEKEPRELFVKGTMKDIRENFQDLMQYCAQDVWATHEVFQQQLPLFLERCPHPVTLAGMLEMGVSYLPVNQNWERYLAEAQGTYEELQREMKKSLMDLANDACQLLSGERYKEDPWLWDLEWDLQEFKQKKAKKVKKEPATASKLPIEGAGAPGDPMDQEDLGPCSEEEEFQQDVMARACLQKLKGTTELLPKRPQHLPGHPGWYRKLCPRLDDPAWTPGPSLLSLQMRVTPKLMALTWDGFPLHYSERHGWGYLVPGRRDNLAKLPTGTTLESAGVVCPYRAIESLYRKHCLEQGKQQLMPQEAGLAEEFLLTDNSAIWQTVEELDYLEVEAEAKMENLRAAVPGQPLALTARGGPKDTQPSYHHGNGPYNDVDIPGCWFFKLPHKDGNSCNVGSPFAKDFLPKMEDGTLQAGPGGASGPRALEINKMISFWRNAHKRISSQMVVWLPRSALPRAVIRHPDYDEEGLYGAILPQVVTAGTITRRAVEPTWLTASNARPDRVGSELKAMVQAPPGYTLVGADVDSQELWIAAVLGDAHFAGMHGCTAFGWMTLQGRKSRGTDLHSKTATTVGISREHAKIFNYGRIYGAGQPFAERLLMQFNHRLTQQEAAEKAQQMYAATKGLRWYRLSDEGEWLVRELNLPVDRTEGGWISLQDLRKVQRETARKSQWKKWEVVAERAWKGGTESEMFNKLESIATSDIPRTPVLGCCISRALEPSAVQEEFMTSRVNWVVQSSAVDYLHLMLVAMKWLFEEFAIDGRFCISIHDEVRYLVREEDRYRAALALQITNLLTRCMFAYKLGLNDLPQSVAFFSAVDIDRCLRKEVTMDCKTPSNPTGMERRYGIPQGEALDIYQIIELTKGSLEKRSQPGP
B1: the binding entry is “binds”.
